For 68 sequences, median seed-adjusted z-score results are on record in PubChem BioAssay AID1347426 (Functional Genomics Laboratory (NCATS/FGL), 2020).

The campaign covered roughly 31,000 sequences. About 1,400 (4.5%) were called active.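 How the source made its calls: active means median seed-adjusted z-score above 1 or below -1; inactive means the rest.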 The list shows a part of the results.

The test in a line: Novel Modifiers of Survival Motor Neuron (SMN) Protein: Gene Identification via Genome-wide siRNA Screen.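 Further: luminescence tracks full-length SMN protein made from the SMN2 reporter.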 To be noted: HEK293T SMN2-luciferase reporter, siRNA knockdown, 72 h; actives lie on both sides. Put shortly: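 Each of three siRNAs per gene is reverse-transfected (1 pmol) into reporter HEK293T cells whose luciferase output tracks SMN protein level. After 72 h culture, ONE-Glo luminescence is control-normalized, log10-transformed and MAD-standardized; Common Seed Analysis deprioritizes seed-driven hits.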
For orientation: Reporter assays use an easily measured gene product as a stand-in for the process of interest.
Turning to CGUGGGUAAUGAUGCGGAATT against TOM1, the median seed-adjusted z-score is inactive: 0.774. On to GCAUGCAGAUGUUCGGCAATT against CACNA1F, for which the median seed-adjusted z-score is inactive: 0.22.

On to GGUCGAAGUUGAGUAUGAATT against ADSSL1, for which the median seed-adjusted z-score was inactive: 0.0976. For CAACUUCCCUGAUCUCAAUTT against CPN1 the value was inactive: 0.17; for GCUAUAACCUCCAACCUGATT against RGL2, inactive: 0.174.

Regarding GACAUAUAAUGACAUAGAUTT against TRAK1, the median seed-adjusted z-score was inactive: 0.298.

As for GCGUUGCAAUUAUAAGGUATT against HTR2C, the median seed-adjusted z-score is inactive: -0.115. For GACUCAUGUUUGUAAACGATT against MPDZ the value was inactive: -0.398. The figure for GAGCAGUAAGACUAACGAATT against ANKIB1 is inactive: -0.00367.

Take CCGGAGAUCUUAAUAGGAATT against ECHS1: the median seed-adjusted z-score is inactive: 0.0273.

For GCAUGUCUCUGACACCUCATT against KRT5, the median seed-adjusted z-score was inactive: -0.325. Regarding CCACCUUGCUCAACUAUGATT against AOC3, the median seed-adjusted z-score is inactive: -0.474. The figure for GCCUCCAAAGGUUACAUUUTT against UBE2E1 is inactive: 0.888; for GCUGCAAGAAUCUACUAUATT against HEPH it is inactive: -0.293; for CAUCGAAAAGGUCUCCUUUTT against NUMBL it is inactive: -0.139.

AGAGGAUUCAUUUCUUCUATT against ACER1: the median seed-adjusted z-score was inactive: 0.308.

Regarding GCUACGUCCUUUACCCGAATT against HEXA, the median seed-adjusted z-score was inactive: -0.551. For CAUUCGCUCUGGUACUUAUTT against CRYZ the value was inactive: -0.809; for GAACGGGUAUGUGGAGAUATT against INHBA, inactive: 0.361. The figure for CCAUCAAUGGAGAUCCGGATT against ADAMTS4 is inactive: -0.0153. For CGAGAGCAACUACCUCUUUTT against PPP1CA, the median seed-adjusted z-score is inactive: 0.115.

As to CGGGAACUCUAAUCCUUGATT against AKAP5, the median seed-adjusted z-score was inactive: 0.0592. As to GCCCAUCGCUCGAAAAAGATT against SLC39A3, the median seed-adjusted z-score was inactive: 0.0298.

As for GUUCCUCAGGAGUACCUUCTT against CSHL1, the median seed-adjusted z-score was inactive: -0.54. For GGAUCAAGAUAUUCAAGUATT against PKD2L1 the value was inactive: 0.445; for AGUACAACUUCAUCGCAGATT against HTRA2, inactive: -0.503; for CCACUCCAUUAAGAGGCUATT against ATP6V1F, inactive: -0.428. The figure for GCAGGUGUCUAGUAGUUCUTT against RFWD3 is inactive: 0.554. For GGAUGUACAUGUGGUCGAATT against ITGA8 the value was inactive: -0.215; for AGGUGCUCCUGAUGAAAGATT against RBMXL2, inactive: -0.387.

With ACUUCUUCGUUUGUCCUCATT against FOSB, the median seed-adjusted z-score was inactive: 0.266. Regarding GGAUACGAGUGGUGGUUGATT against GALC, the median seed-adjusted z-score is inactive: 0.

As to GACGGAUUCAAGUACCUUUTT against AMFR, the median seed-adjusted z-score was inactive: -0.15. The figure for GCCUGAAGGUUCUAAAGAATT against SIRT7 is inactive: -0.427. For GUGAGAAAUUUGAACGGUUTT against PIK3CD the value was inactive: 0.00831; for CGAGAUAUAAGUUCGAAGATT against ZP2, inactive: 0.0455. For AGCGCGACCUUAUCUCCAATT against CD74 the value was inactive: 0.0748. As to GCACCUACCUUAGAAAACATT against SSX2, the median seed-adjusted z-score is inactive: -0.583. For the sequence CCACCACAGAUUUUCCUAUTT against CD300A, the median seed-adjusted z-score is inactive: -0.414. For GCAAAUCCACGUUAAUGGATT against 11-Sep the value was inactive: -0.245. The figure for GGUUCAUCAUCUACACUUUTT against SSTR2 is inactive: -0.162; for GCAGAGAAAUCUUCCGGAATT against POLR1C it is inactive: -0.0299.

As for UCAGAGCAGUUUACAGCAATT against TUBB4Q, the median seed-adjusted z-score is inactive: -0.0288. For AGACCGAGGUGGACUGUAATT against FSTL1 the value was inactive: 0.503; for GCUUGCAGCUUUUUAAAGATT against PIGC, inactive: -0.3. For GGUACUUGAUAGCCUCUUATT against HMGN1 the value was inactive: -0.183; for GGUGGUGAAUUAUGACCAATT against MYLK2, inactive: -0.0498; for GCAUCUACGUCAUGGGCUUTT against PSAT1, inactive: -0.706.

On to ACGGCCGAGUGAUCCCUUUTT against DNAJB5, for which the median seed-adjusted z-score is inactive: -0.444. As for UCUCGUCCGUGGUAGCUGATT against E4F1, the median seed-adjusted z-score was inactive: 0.698. The figure for GCAAGUUUCUACUGAGUCATT against KLHL17 is inactive: 0.139; for GUGACUUUGUUAUCCAGAATT against PCDH1 it is inactive: -0.514; for CCCUCACCGUUUACAGCAATT against NR6A1 it is inactive: -0.287. For GCUGCACGAUUUAUGGAAATT against GMIP the value was inactive: 0.0686; for CCAUCCACGUUGCUAAUAATT against DMBT1, inactive: -0.131; for GUGCGAAUGUACAACAAGATT against HKDC1, inactive: -0.119.

For the sequence GGAUACCUCUGAACACCGATT against NUP85, the median seed-adjusted z-score is inactive: 0.948. For CUGACUUCCCAAACCCUUATT against MASP1 the value was inactive: 0.653; for GGAAAAACAUGAAGUUUAUTT against SULT2A1, inactive: -0.123; for GACCUUAUAUGUGCAAGGATT against ZNF8, inactive: 0.97. For AAGAUAUGCUGGUACAUCUTT against RAD51C the value was inactive: -0.0724; for GCAUAUGCGGUACUCAGCATT against DNAJB12, inactive: 0.

Consider GCAGCGAACUCAAGGAACATT against POLA2, for which the median seed-adjusted z-score was inactive: -0.114.

As to GCUGGAAGGUGAACCGUUATT against ADCYAP1R1, the median seed-adjusted z-score was inactive: 0.404. The figure for GACUGAUGCUUUGACUGAATT against NPTX2 is inactive: 0.0558. For CAACAGCACCAGUUUGACATT against NAGLU the value was inactive: -0.526; for AAUGAGAGGUUGAUCUGUATT against ZBTB34, inactive: 0.0298. The figure for GGAAGAUUGUUGAUCGAAUTT against RCN1 is inactive: 0.236.
